Assay results as given in patent US20140378454A1, “NOVEL METHODS” (XSPRAY MICROPARTICLES AB, priority 2012, published 2014).
Structures can show the parent of a compound that is named as a salt. At least one structure is not confirmed: it was looked up by name or label, or the drawing left a doubt.

Assay: Dissolution rate measurement in sink conditions, flow through cell system, FaSSIF, 37° C.
Assay type: physicochemical
Settings: sink condition in FaSSIF; for Initial Dissolution Rate: initial slope of accumulated % solubilized vs time, 0 to 10 minutes
Experimental: The temperature of the apparatus was set to 37° C. The amount of powder added into the cell depends on drug load of the powder: The exact amount of powder was calculated from results obtained from drug load analysis of the powders.
Typically, 3.5 to 7 mg PKI was added into the flow through cell and a flow rate between 8 and 16 ml medium/min (preferably about 8 ml medium/min) was pumped through the powder. One ml samples of the medium passing through the cell were collected at predetermined times. […] Samples were taken after 0, 0.5, 1, 1.5, 2, 3, 4, 5, 6, 7, 8, 9, 10, 15, 20, 25, 30, 35 and 40 min from the moment the medium comes out from the flow through cell. The accumulated % solubilized of the amount of active substance added into the flow through cell was calculated and plotted against time (min). The initial slope (“initial dissolution rate”) of the graph was estimated, as measured during 0 to 10 minutes, and taken as the dissolution rate of the material in sink condition at 37° C. in the given dissolution medium.

Compound: Cc1ccc(Nc2nccc(N(C)c3ccc4c(C)n(C)nc4c3)n2)cc1S(N)(=O)=O [Exp 520, pazopanib HCl]
- Dissolution Rate (5-10 min) (5-10 min): 0.428
- Initial Dissolution Rate: 4.8

Compound: Cc1nc(Nc2ncc(C(=O)Nc3c(C)cccc3Cl)s2)cc(N2CCN(CCO)CC2)n1 [Exp 550, dasatinib]
- Initial Dissolution Rate: 0.8

Compound: CNC(=O)c1ccccc1Sc1ccc2c(/C=C/c3ccccn3)n[nH]c2c1 [Exp 580, axitinib]
- Initial Dissolution Rate: 0.051

Compound: CCCS(=O)(=O)Nc1ccc(F)c(C(=O)c2c[nH]c3ncc(-c4ccc(Cl)cc4)cc23)c1F [Exp 590, vemurafenib]
- Initial Dissolution Rate: 0.002
